Experimental data: patent US20060286608A1, “Method for screening transglutaminase 2 inhibitor or activator” (priority 2005, published 2006)
No constants are given. Whether binding was seen depends on the method and setting. In cells and extracts the contact can be indirect. Some binding calls cover weakened binding; strength is not graded here.

Molecular target: full-length human NF-κB (p65) (human), Q04206
Assay: co-immunoprecipitation with an NF-κB(p65) antibody, Western blotting against I-κBα
Settings: remark: other sources report otherwise

binding: binds
B1: full-length human I-κBα (free form), P25963 1-317 (protein, UniProt P25963 1-317, looked up, not shown: small tags and cut ends)
chain: MFQAAERPQEWAMEGPRDGLKKERLLDDRHDSGLDSMKDEEYEQMVKELQEIRLEPQEVPRGSEPWKQQLTEDGDSFLHLAIIHEEKALTMEVIRQVKGDLAFLNFQNNLQQTPLHLAVITNQPEIAEALLGAGCDPELRDFRGNTPLHLACEQGCLASVGVLTQSCTTPHLHSILKATNYNGHTCLHLASIHGYLGIVELLVSLGADVNAQEPCNGRTALHLAVDLQNPDLVSLLLKCGADVNRVTYQGYSPYQLTWGRPSTRIQQQLGQLTLENLQMLPESEDEESYDTESEFTEFTEDELPYDDCVFGGQRLTL
